In patent US9580524B2, “Vinylcyclopropane, monomer composition, polymer, polymer composition, and article” (Dexerials Corporation, priority 2014, dated 2017):

Experiment: Volume change upon polymerization (monomer and polymer density by dry automatic pycnometer)
Type: physicochemical
Conditions: polymerization with AIBN, 48 hours at 60° C.
Method: Volume change relative to monomer volume refers to the change in volume of the polymer relative to the volume of the monomer or monomers that are constituent components of the polymer. This volume change relative to monomer volume is obtained through the following equation by measuring the density of the monomer(s) at 25° C. prior to polymerization (monomer density) and the density of the polymer at 25° C. after polymerization (polymer density). ((Monomer density)−(Polymer density))/(Monomer density)×100(%)
First, polymerization of the obtained monomer (compound represented by structural formula (6)) was performed as follows.
A freezing ampoule (20 mL) was charged with 4.03 mg of AIBN (4 mol %), 440.2 mg (0.61 mmol) of Ad-MVCP, and 0.267 g (0.31 mL) of toluene, and the monomer was dissolved. Thereafter, freeze drying was performed three times and dissolved oxygen was removed. The freezing ampoule was immersed in an oil bath and was heated for 48 hours at 60° C. to polymerize the monomer. After polymerization, the freezing ampoule was cooled by liquid nitrogen to quench radicals. Next, 50 mL of toluene was added to the freezing ampoule in order to dissolve undissolved components other than the polymer and suction filtration was then performed. Polymer filtered onto filter paper as a result was washed with toluene and acetone, was vacuum dried for 48 hours at 100° C., and was collected as a white solid polymer. The collected polymer was used as an evaluation sample.
The volume change upon polymerization was calculated using the following equation by measuring the monomer density and polymer density of each sample prepared by the procedure described above using a dry automatic pycnometer (AccuPyc II 1340 produced by Shimadzu Corporation). ((Monomer density)−(Polymer density))/(Monomer density)×100(%)
A positive calculated value indicates volume expansion whereas a negative calculated value indicates volume shrinkage.
Note that in Comparative Example 3, polymerization of the monomer was performed by bulk polymerization based on the aforementioned document. […]

In the case of `C=CC1CC1(C(=O)OC12CC3CC(CC(C3)C1)C2)C(=O)OC12CC3CC(CC(C3)C1)C2` (stereo not drawn) [Comparative Example 2, 1,1-bis[(1-adamantyloxy)carbonyl]-2-vinylcyclopropane], the Conversion rate was 99.0%.

Work on `C=CC1CC1(C(=O)OC12CC3CC(CC(C3)C1)C2)C(=O)OC12CC3CC(C1)CC(OC(=O)C1(C(=O)OC45CC6CC(CC(C6)C4)C5)CC1C=C)(C3)C2` (stereo not drawn) [Example 1, 1,3-bis[(1-adamantyloxycarbonyl-2-vinylcyclopropane-1-yl)carbonyloxy]adamantane] yielded a Conversion rate of 98.0%.

In the case of “tricyclodecane dimethanol dimethacrylate [Comparative Example 1]”, the Conversion rate was 89.4%.
